# Data from the supplement of paper PMC3334620.
# Over roughly 33,000 sequences, “E-score (-0.5 to 0.5)” has its median near -0.016; the highest 2% begin near 0.3. Some of the results follow.
# Target: T1, Yer184c (UniProt P39961)
# T1 sequence: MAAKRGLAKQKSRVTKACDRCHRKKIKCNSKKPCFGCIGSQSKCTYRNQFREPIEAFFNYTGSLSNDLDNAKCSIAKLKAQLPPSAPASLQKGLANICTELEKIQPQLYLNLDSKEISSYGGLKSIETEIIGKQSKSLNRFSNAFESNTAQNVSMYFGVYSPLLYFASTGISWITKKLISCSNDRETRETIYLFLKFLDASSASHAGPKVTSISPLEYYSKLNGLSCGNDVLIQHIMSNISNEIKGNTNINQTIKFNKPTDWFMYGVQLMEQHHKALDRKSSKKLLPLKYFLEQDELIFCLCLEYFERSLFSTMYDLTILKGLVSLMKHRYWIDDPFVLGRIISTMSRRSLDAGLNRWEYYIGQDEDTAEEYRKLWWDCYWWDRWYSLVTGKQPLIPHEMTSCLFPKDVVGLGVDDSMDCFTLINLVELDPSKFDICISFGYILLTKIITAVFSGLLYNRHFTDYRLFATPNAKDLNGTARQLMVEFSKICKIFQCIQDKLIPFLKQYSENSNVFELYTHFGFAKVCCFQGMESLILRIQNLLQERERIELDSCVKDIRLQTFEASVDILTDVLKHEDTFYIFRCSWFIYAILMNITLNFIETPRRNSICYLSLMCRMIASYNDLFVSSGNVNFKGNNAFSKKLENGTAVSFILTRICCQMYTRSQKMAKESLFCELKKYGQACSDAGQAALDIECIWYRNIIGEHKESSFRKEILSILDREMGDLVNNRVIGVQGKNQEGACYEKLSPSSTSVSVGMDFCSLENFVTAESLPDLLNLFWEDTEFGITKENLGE
# Test: PBM E-score (8-mer binding enrichment) (E-score (-0.5 to 0.5)); higher = stronger / more preferred TF binding
# Conditions: protein concentration: 100 nM; construct: GST-full length
# Outline: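 Using PURExpress in vitro transcription/translation, GST-tagged yeast transcription factors were made in full-length or DNA-binding-domain form. These were applied at about 100-200 nM to double-stranded universal all-10-mer Agilent arrays, and bound protein was detected with fluorescent anti-GST. Scans were normalised with masliner before the Universal PBM Analysis Suite assigned E-scores to ungapped eight-base words pooled with their reverse complements.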
row,Sequence,PBM E-score
1,AGTTATTG,0.0382
2,CAAGCGTA,-0.216
3,AAGCCCTA,-0.0474
4,CCCTGCAA,-0.13
5,CTTAACAC,-0.11
6,ACGGGAGT,0.126
7,ACCCGCTA,-0.0558
8,AGAAGTAA,0.161
9,ATTCTGTA,0.161
10,CGACACCC,-0.155
11,CATGTCCC,-0.151
12,CGCATCTA,0.112
13,AAATTATG,0.108
14,AAGTGGTC,0.0156
15,CTGCCATC,-0.0255
16,GAGGTACC,-0.109
17,AGTTTGGG,0.0469
18,AGCGGATC,0.204
19,AATCAGTG,-0.0342
20,AGCAAAAC,0.0225
21,AATGATGC,0.0595
22,CCGTTAAG,-0.0245

# Laid out differently: entries from further up.
row | Sequence | PBM E-score
17 | AGTTTGGG | 0.0469
18 | AGCGGATC | 0.204
19 | AATCAGTG | -0.0342
20 | AGCAAAAC | 0.0225
21 | AATGATGC | 0.0595

# Next part.

row,Sequence,PBM E-score
1,GATCAGCC,-0.105
2,TGCAATAA,0.0778
3,CGGATTGA,0.218
4,AACGTGAC,-0.151
5,ATTGACGG,0.0836
6,CGGTAGAA,-0.00037
7,ATGCTTTA,-0.15
8,TCCTGCGA,0.00447
9,GGCGCGCA,0.0179
10,CGGAGGTA,0.077
11,AGAGGTCG,-0.072
12,AGCTTTTC,0.0452
13,AGGTTACG,-0.148
14,CTTGTAAC,0.215
15,CTCGAGTA,0.0674
16,CTATAAGA,-0.0299
17,GCCCTTAC,-0.121
18,ACCACCAG,-0.125
19,CAGGGGCC,-0.198
20,ACTCGAGA,0.0599
21,GCGGGCAC,0.0779
22,CTCCTCAG,-0.212

row,Sequence,PBM E-score
1,TCCGTCGA,0.176
2,GTCATCGA,-0.0808
3,TCGAAACA,0.266
4,CTTCCAGC,-0.198
5,CAGTTTAA,-0.0275
6,ACCTGGGA,-0.14
7,CCGCAGTA,-0.0771
8,ACATTAGT,-0.0735
9,GTAAGCAA,-0.014
10,TACGAGGA,-0.109
11,AATACTTA,0.0866
12,AATGCAAC,-0.0471
13,CTTTTGGC,-0.00015
14,TAATTCGA,-0.0329
15,ATACTTAA,0.176
16,CTGACATC,0.0723
17,ATTTCAGC,-0.0432
18,CGACCGCA,0.0113
19,AATGACTA,-0.131
20,AAGATGAT,0.00521
21,ATGTGGGG,-0.307
22,AGCTGTAG,-0.00512

row,Sequence,PBM E-score
1,GGTAGAAC,-0.209
2,GCCCCCAA,-0.337
3,ACATTGGT,-0.0959
4,ACTATAAG,0.0112
5,GAGGTGGC,-0.329
6,CAAAGAGG,-0.147
7,GATTCATA,-0.0189
8,AATCGACT,-0.154
9,CAATAGCC,-0.187
10,CTAGGAGC,-0.114
11,TGGTTCAA,0.116
12,CCTCGCTC,0.192
13,ACGTGACT,-0.16
14,CCTAGCAA,-0.102
15,GACACGAC,-0.166
16,CTCCTATA,-0.227
17,ATCATATA,0.164
18,CCACAATC,-0.0716
19,CGTGCCTC,0.0262
20,AGTCCGGC,0.289
